{"source": "PubChem BioAssay AID1671195 (Yale University, 2021)", "purpose": "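Genes whose knockdown alters LDL uptake in liver cancer cells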 (primary screen)", "system": "human Huh7 hepatoma cells", "reagent": "siRNA pool against human genes, 18 nM", "duration": "about 2 to 2.5 days of knockdown, then 8 h LDL uptake", "treatment": "DiI-labelled LDL at 30 µg/ml for 8 h, in lipoprotein-deficient serum medium", "measurement": "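Per-cell DiI-LDL intensity by automated imaging; well means scaled to the plate median and given as a robust z-score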", "reading the numbers": "robust z-score: higher = more LDL uptake after knockdown", "active means": "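Active when two or more replicates show a robust z-score above 2 or below -2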", "note": "Shown is a random part of about 22,000 reagents. About 1,510 of all reagents (6.9%) were called active. 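Active includes knockdowns raising or lowering LDL uptake; positive z-scores mean more uptake, negative mean less.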 Unmarked entries are inactive. Reagents against one gene are numbered here."}
{"target": "LINC01547 (long independently transcribed non-coding RNA 1547)", "reagent no.": 1, "robust z-score, replicate 1": "-1.65 (active)", "robust z-score, replicate 2": -2.05, "robust z-score, replicate 3": -2.02}
{"target": "LINC01547 (long independently transcribed non-coding RNA 1547)", "reagent no.": 2, "robust z-score, replicate 1": 1.37, "robust z-score, replicate 2": 1.03, "robust z-score, replicate 3": 0.866}
{"target": "CDCA8 (cell division cycle associated 8)", "reagent no.": 1, "robust z-score, replicate 1": 0.678, "robust z-score, replicate 2": 1.49, "robust z-score, replicate 3": 0.243}
{"target": "CNOT2 (CCR4-NOT transcription complex subunit 2)", "reagent no.": 1, "robust z-score, replicate 1": -0.464, "robust z-score, replicate 2": -1.15, "robust z-score, replicate 3": -0.549}
{"target": "CRK (CRK proto-oncogene, adaptor protein)", "reagent no.": 1, "robust z-score, replicate 1": 0.99, "robust z-score, replicate 2": 1.05, "robust z-score, replicate 3": -0.306}
{"target": "BBS5 (Bardet-Biedl syndrome 5)", "reagent no.": 1, "robust z-score, replicate 1": -0.423, "robust z-score, replicate 2": -0.377, "robust z-score, replicate 3": -0.442}
{"target": "ATP12A (ATPase H+/K+ transporting non-gastric alpha2 subunit)", "reagent no.": 1, "robust z-score, replicate 1": 0.752, "robust z-score, replicate 2": -0.341, "robust z-score, replicate 3": 0.777}
{"target": "OR5AR1 (olfactory receptor family 5 subfamily AR member 1)", "reagent no.": 1, "robust z-score, replicate 1": 1.47, "robust z-score, replicate 2": 1.62, "robust z-score, replicate 3": 1.25}
{"target": "LOC440947 (retired record)", "reagent no.": 1, "robust z-score, replicate 1": 0.0828, "robust z-score, replicate 2": 0.122, "robust z-score, replicate 3": 0.0716}
{"target": "NAT16 (N-acetyltransferase 16 (putative))", "reagent no.": 1, "robust z-score, replicate 1": -0.886, "robust z-score, replicate 2": -0.457, "robust z-score, replicate 3": -0.467}
{"target": "ZBTB14 (zinc finger and BTB domain containing 14)", "reagent no.": 1, "robust z-score, replicate 1": 1.4, "robust z-score, replicate 2": 0.509, "robust z-score, replicate 3": 0.731}
{"target": "ACSF3 (acyl-CoA synthetase family member 3)", "reagent no.": 1, "robust z-score, replicate 1": 0.832, "robust z-score, replicate 2": 0.224, "robust z-score, replicate 3": 0.573}
{"target": "ASPN (asporin)", "reagent no.": 1, "robust z-score, replicate 1": -1.12, "robust z-score, replicate 2": -1.43, "robust z-score, replicate 3": -0.476}
{"target": "TEP1 (telomerase associated protein 1)", "reagent no.": 1, "robust z-score, replicate 1": 0.209, "robust z-score, replicate 2": 0.0556, "robust z-score, replicate 3": -0.116}
{"target": "GPR37 (G protein-coupled receptor 37)", "reagent no.": 1, "robust z-score, replicate 1": 1.16, "robust z-score, replicate 2": 0.298, "robust z-score, replicate 3": 0.12}
{"target": "SLC23A2", "reagent no.": 1, "robust z-score, replicate 1": "2.31 (active)", "robust z-score, replicate 2": 2.19, "robust z-score, replicate 3": 3.02}
{"target": "MINPP1 (multiple inositol-polyphosphate phosphatase 1)", "reagent no.": 1, "robust z-score, replicate 1": 0.734, "robust z-score, replicate 2": 0.654, "robust z-score, replicate 3": 0.254}
{"target": "BANP (BTG3 associated nuclear protein)", "reagent no.": 1, "robust z-score, replicate 1": -0.883, "robust z-score, replicate 2": -1.18, "robust z-score, replicate 3": -2.37}
{"target": "NLRP10 (NLR family pyrin domain containing 10)", "reagent no.": 1, "robust z-score, replicate 1": -1.35, "robust z-score, replicate 2": -1.28, "robust z-score, replicate 3": -1.47}
{"target": "GOLT1A (golgi transport 1A)", "reagent no.": 1, "robust z-score, replicate 1": -0.0128, "robust z-score, replicate 2": -0.157, "robust z-score, replicate 3": 1.23}
{"target": "PELI1 (pellino E3 ubiquitin protein ligase 1)", "reagent no.": 1, "robust z-score, replicate 1": 0.448, "robust z-score, replicate 2": 1.77, "robust z-score, replicate 3": -0.331}
{"target": "RPS11 (ribosomal protein S11)", "reagent no.": 1, "robust z-score, replicate 1": -1.1, "robust z-score, replicate 2": -1.85, "robust z-score, replicate 3": 0.303}
{"target": "AAAS (aladin WD repeat nucleoporin)", "reagent no.": 1, "robust z-score, replicate 1": -0.939, "robust z-score, replicate 2": -0.32, "robust z-score, replicate 3": 0.322}
{"target": "RNF217 (ring finger protein 217)", "reagent no.": 1, "robust z-score, replicate 1": 0.288, "robust z-score, replicate 2": 0.712, "robust z-score, replicate 3": 0.674}
